Measurements reported in paper PMC3928314, “Identification and Characterization of Sebaceous Gland Atrophy-Sparing DGAT1 Inhibitors” (PLoS ONE, 2014).

Assay: Skin compound concentration after 14 days oral dosing
Format: in vivo, mouse
Settings: DIO mice
Experimental: Experiments were performed in male diet induced obese C57BL/6 mice (Taconic Farms, Germantown, NY) that were fed high-fat diet (D12492: 60% kcal from fat; Research Diets) in a 12 hr light/12 hr dark cycle. Animal protocols used in these studies were approved by the Merck Research Laboratories Institutional Animal Care and Use Committee (Rahway, NJ). Mice were acclimated to nonspecific stress for 7 days before the onset of the chronic dosing studies where they were dosed orally with vehicle (0.5% methylcellulose) or compounds at 30 mg/kg, or at doses indicated, for 14 days.
The skin tissue samples from mice were weighted and placed in 48-well plates (or tubes). […] An aliquot of 100 µL homogenized blank skin tissue samples were transferred to 96-well plates designated for standard curve and QCs. […] An aliquot of 100 µL dosed skin tissue homogenates were transferred to the 96-well plate and a 25 µL aliquot of acetonitrile:water 1∶1 was added into each well containing dosed tissue samples to make the volumes of all samples, stds, and QCs equal. Protein precipitation was used for sample extraction by the addition of 500 µL of acetonitrile crash solution, containing IS. Internal standard used was Alprazolam (Sigma Aldrich) at 100 µM in the crash solution. Samples were vortexed for 30 seconds and then centrifuged at 4000 rpm for 5 min. The supernatant was transferred to a separate plate. […]

With O=C(Nc1ccc([C@H]2CC[C@H](C(=O)O)CC2)cc1F)c1nnc(Nc2ccc(F)c(F)c2)o1 [Cpd3] the “Skin/IC50 (skin concentration vs in vitro potency)” value was 12.27.
